The nature of the experiment: IkB Signaling. To be noted: ABC-DLBCL IkBa-CBG/CBR dual luciferase ratio (green luciferase fused to IkBa over red control in OCI-Ly3 lymphoma cells), 4 h. The essentials:
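Curves were fitted separately to fusion (green), unfused (red) and ratio luminescence, then classed by r2, magnitude and activity. Cells: OCI-Ly3, 4 h compound plus doxycycline at 37C; 10 uM MG-132 defined full response.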

Where [1] appears, read: measured here: control luc red channel unless noted.

Some of the results follow. The main result of the screen is listed elsewhere. These columns were measured beside it and carry no call. Compounds called inactive in the main read-out are mostly missing here. Words in brackets tell the shape of the fitted curve; partial curves, single points and poor fits give uncertain potencies.

As a reminder, the AC50 is the midpoint of the concentration-response curve, whichever way the signal moves. As for `CCS(=O)(=O)N1CCc2cc(C(=O)Nc3cccc(C)c3C)ccc21`, the concentration at half-maximal activity (AC50) under setting [1] was 10 µM [falling, partial curve].

Consider `Cc1nc(-n2nc(C)c(Cc3ccccc3Cl)c2C)sc1C(=O)N1CCC(C)CC1`, for which the AC50 under setting [1] is 12.6 µM [falling, partial curve].

`CCOC(=O)C(CC)Sc1ncnc2sc3c(c12)CCCC3` (stereo not given): the AC50 under setting [1] was 31.6 µM [falling, partial curve].

As for `COc1ccc(OCC(=O)N2CCN(C(=O)c3cc(OC)c(OC)c(OC)c3)CC2)cc1`, the half-maximal activity concentration (AC50) under setting [1] was 0.00501 µM [falling, full curve, poor fit].

As to `CCOc1ccc(C2N3CC4(C(C)C)CN2CC(C(C)C)(C3)C4=O)cc1OC` (stereo not given), the half-maximal activity concentration (AC50) under setting [1] was 10 µM [falling, partial curve].

For `CCN(C(=O)Cn1c(SCC(=O)Nc2ccc(OC)cc2)nc2ccccc21)c1cccc(C)c1`, the AC50 under setting [1] was 3.16 µM [falling, partial curve].

As to `O=C(COc1ccccc1)NCC(c1cccs1)S(=O)(=O)c1ccc(Cl)cc1` (stereo not given), the concentration at half-maximal activity (AC50) under setting [1] was 20 µM [falling, single point].

As to `Cc1cc(C)n2c(Nc3ccccc3C)c(-c3cccs3)nc2n1`, the AC50 under setting [1] was 20 µM [falling, single point].

Consider `COc1cccc(C(=O)Nc2ccc(-n3nncc3-c3ccc(Br)cc3)cc2)c1OC`, for which the AC50 under setting [1] is 39.8 µM [falling, partial curve].

Turning to `Cc1ccc(S(=O)(=O)N(CC(O)Cn2c3ccccc3c3ccccc32)c2cccc(C(=O)N(C)C)c2)cc1` (stereo not given), the AC50 under setting [1] was 15.8 µM [falling, partial curve].

With `Cc1ccc(CN2C(=O)c3ccccc3Sc3ccc(C(=O)NCc4ccco4)cc32)cc1`, the AC50 under setting [1] was 12.6 µM [falling, partial curve].

As to `CCC1=C(C[C@H]2NCCc3ccccc32)C[C@@H]2c3cc(OC)c(OC)cc3CCN2C1`, the half-maximal activity concentration (AC50) under setting [1] is 3.16 µM [falling, partial curve].

With `Cc1ccc(Oc2nc3c(c(=O)n(Cc4ccccc4)c(=O)n3C)n2C)cc1C`, under setting [1], the concentration at half-maximal activity (AC50) was 12.6 µM [falling, partial curve].

On to `c1ccc(CCn2nnnc2C(c2cccs2)N2CCN(Cc3ccc4c(c3)OCO4)CC2)cc1` (stereo not given), for which the AC50 under setting [1] was 20 µM [falling, partial curve].

On to `CCN(C(=O)C1CCC(CNS(=O)(=O)c2cccc3nsnc23)CC1)c1ccccc1` (stereo not given), for which the half-maximal activity concentration (AC50) under setting [1] is 31.6 µM [falling, single point].

With `CC1(C)CC(=O)c2cc(C(=O)Nc3ccc(Br)cc3)c(=O)[nH]c2C1`, the AC50 under setting [1] is 0.794 µM [rising, full curve].

Consider `CCN(C(=O)C1CCC(CNS(=O)(=O)c2cccc3nsnc23)CC1)c1cccc(C)c1` (stereo not given), for which the AC50 under setting [1] was 12.6 µM [falling, partial curve].

As for `CC[C@]1(O)C[C@H]2CN(CCc3c([nH]c4ccccc34)[C@](C(=O)OC)(c3cc4c(cc3OC)N(C=O)[C@H]3[C@@](O)(C(=O)OC)[C@H](OC(C)=O)[C@@]5(CC)C=CCN6CC[C@]43[C@H]65)C2)C1`, the AC50 is, setting by setting: (measured here: IkB-luc green channel) 0.158 µM [rising, full curve]; (measured here: control luc red channel) 0.0794 µM [rising, full curve].

For `O=C(Cc1ccc(NC(=O)N2CCSc3ncccc32)cc1)NCc1ccccc1`, the half-maximal activity concentration (AC50) under setting [1] was 39.8 µM [falling, single point].

`COc1ccc2c(c1)CC(C(=O)NCCN1CCN(c3cccc(Cl)c3)CC1)CO2` (stereo not given): the AC50 under setting [1] is 15.8 µM [falling, partial curve, poor fit].

On to `O=C(c1ccc2c(c1)N(Cc1ccc(F)cc1)CCS2)N1CCN(c2ccccc2)CC1`, for which the AC50 under setting [1] was 3.16 µM [falling, full curve].

`CCOC(=O)C1CCN(Cc2c(O)ccc3ccccc23)CC1`: the AC50 under setting [1] was 15.8 µM [falling, partial curve].

As to `c1ccc(-n2cnnc2SCc2nc3ccccc3s2)cc1`, under setting [1], the AC50 was 1.58 µM [falling, full curve].

In the case of `Cc1ccc(CNC(=O)c2sc3nc4n(c(=O)c3c2C)CCCC4)cc1`, the AC50 under setting [1] was 25.1 µM [falling, partial curve].

As to `Cc1nc(Oc2ccccc2C)c2oc3ccccc3c2n1`, the half-maximal activity concentration (AC50) under setting [1] is 39.8 µM [falling, single point].

For `COc1ccc2nc3oc(C(=O)Nc4cccc(C(F)(F)F)c4)cc3cc2c1`, under setting [1], the half-maximal activity concentration (AC50) is 15.8 µM [rising, single point].

As for `COc1ccc(N2CCN(CCCNC(=O)c3ccc4nc(CCc5ccccc5)oc4c3)CC2)cc1`, the half-maximal activity concentration (AC50) under setting [1] is 25.1 µM [falling, single point].

`COc1ccc(NC(=O)CSc2c3c(nc4ccc(Cl)cc24)CCCC3)cc1Cl`: the AC50 under setting [1] was 7.94 µM [falling, full curve].

Turning to `Cc1ccccc1NC(=O)CS(=O)(=O)c1cccc2nsnc12`, under setting [1], the AC50 was 31.6 µM [rising, partial curve, poor fit].

For `Cc1c(Cl)cccc1NC(=O)c1ccc(NC(=O)N2CCSc3ncccc32)cc1`, the AC50 under setting [1] is 12.6 µM [falling, partial curve].

Take `CCOC(=O)Cc1cnc(NC(=O)c2ccccc2)s1`: under setting [1], the AC50 was 12.6 µM [falling, partial curve].

Turning to `COc1ccc(N2CCN(C(=O)c3cnn(-c4ccc(F)cc4)c3-n3cccc3)CC2)cc1`, the AC50 under setting [1] was 20 µM [falling, single point].

For the compound `O=C1CCCc2cc(S(=O)(=O)N3CCCC(C(=O)Nc4ccc(F)c(Cl)c4)C3)ccc2N1` (stereo not given), under setting [1], the AC50 was 31.6 µM [falling, partial curve].

Regarding `CSc1cccc(Nc2cc(C(=O)NCCc3ccc(Cl)cc3)c3ccccc3n2)c1`, under setting [1], the AC50 is 6.31 µM [falling, partial curve].

For `CC1CN(C(=O)N2CCC(C(=O)N3CCN(c4ccccc4)CC3)CC2)c2cc(Cl)ccc2O1` (stereo not given), under setting [1], the AC50 was 25.1 µM [falling, single point].

As for `CCOc1ccc2nc(N3CCC(C(=O)Nc4ccccc4CC)CC3)sc2c1`, the AC50 under setting [1] was 12.6 µM [falling, partial curve].

For `CCN(CC)S(=O)(=O)c1ccc(Cl)c(C(=O)Nc2nnc(C)s2)c1`, under setting [1], the AC50 is 12.6 µM [falling, partial curve].

As for `Cc1cc(N2CCCCC2)nc2ccc(NC(=O)/C=C/c3ccc(OC(C)C)cc3)cc12`, the half-maximal activity concentration (AC50) under setting [1] was 0.398 µM [falling, full curve].

On to `O=c1oc2ccccc2c(O)c1/C=N/c1ncccn1`, for which, under setting [1], the AC50 is 2.51 µM [falling, full curve].

Source of the values: PubChem BioAssay AID445 (National Center for Advancing Translational Sciences (NCATS), 2006).
